Source: publication PMC10164326
Results are given in words; binding and its absence hold for the method and conditions named. In cells and extracts the contact can be indirect. Some results given as binding are weak or reduced against the parent protein; the word gives no strength.

Sequences of proteins named here, by UniProt entry; tags and fusion partners are left off.
UniProt O00308: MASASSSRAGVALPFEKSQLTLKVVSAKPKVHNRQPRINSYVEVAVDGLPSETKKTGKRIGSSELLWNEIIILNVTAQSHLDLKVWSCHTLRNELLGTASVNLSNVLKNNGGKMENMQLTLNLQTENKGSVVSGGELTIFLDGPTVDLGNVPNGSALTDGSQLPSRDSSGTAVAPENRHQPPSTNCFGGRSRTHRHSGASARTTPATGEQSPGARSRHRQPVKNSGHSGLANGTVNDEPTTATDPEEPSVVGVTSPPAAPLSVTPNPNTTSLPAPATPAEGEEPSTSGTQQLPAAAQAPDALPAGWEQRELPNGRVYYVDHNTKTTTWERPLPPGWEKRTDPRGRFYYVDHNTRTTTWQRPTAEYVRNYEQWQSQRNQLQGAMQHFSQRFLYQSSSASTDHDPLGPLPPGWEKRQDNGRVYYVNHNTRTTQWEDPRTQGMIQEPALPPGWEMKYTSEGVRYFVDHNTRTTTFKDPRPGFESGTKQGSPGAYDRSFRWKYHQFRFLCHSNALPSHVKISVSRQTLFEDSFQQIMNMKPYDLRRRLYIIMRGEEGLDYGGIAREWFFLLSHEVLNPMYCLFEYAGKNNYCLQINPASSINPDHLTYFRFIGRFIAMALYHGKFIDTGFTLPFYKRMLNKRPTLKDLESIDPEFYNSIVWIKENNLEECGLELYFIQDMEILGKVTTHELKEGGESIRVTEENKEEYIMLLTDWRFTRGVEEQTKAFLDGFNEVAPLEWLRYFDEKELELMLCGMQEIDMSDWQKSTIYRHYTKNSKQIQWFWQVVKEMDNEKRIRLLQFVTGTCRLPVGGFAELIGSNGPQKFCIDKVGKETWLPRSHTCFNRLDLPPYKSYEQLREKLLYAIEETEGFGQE
UniProt O00571: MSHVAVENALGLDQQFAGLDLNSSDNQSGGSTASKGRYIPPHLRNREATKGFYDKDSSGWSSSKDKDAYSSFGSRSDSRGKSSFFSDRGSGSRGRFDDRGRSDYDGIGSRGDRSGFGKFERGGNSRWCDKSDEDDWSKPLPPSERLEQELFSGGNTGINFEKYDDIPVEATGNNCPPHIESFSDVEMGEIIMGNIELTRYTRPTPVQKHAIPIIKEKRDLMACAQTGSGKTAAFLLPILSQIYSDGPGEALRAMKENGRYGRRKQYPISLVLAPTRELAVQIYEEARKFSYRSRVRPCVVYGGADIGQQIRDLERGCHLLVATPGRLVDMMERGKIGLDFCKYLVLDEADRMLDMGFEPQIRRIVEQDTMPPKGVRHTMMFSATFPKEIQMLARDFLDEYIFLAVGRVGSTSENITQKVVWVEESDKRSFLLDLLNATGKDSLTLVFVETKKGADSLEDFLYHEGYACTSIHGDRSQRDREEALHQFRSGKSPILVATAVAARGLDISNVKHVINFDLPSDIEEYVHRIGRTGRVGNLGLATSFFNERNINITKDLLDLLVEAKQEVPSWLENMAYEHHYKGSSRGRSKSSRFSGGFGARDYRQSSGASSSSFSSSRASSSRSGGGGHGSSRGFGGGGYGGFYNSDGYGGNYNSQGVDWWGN

Molecular target: WW domain-containing E3 ubiquitin protein ligase 2 (WWP2), endogenous (human (endogenous in HUVECs)) (UniProt O00308)
Experiment: co-IP; endogenous proteins in HUVEC lysates (50 mM Tris pH 7.8, 137 mM NaCl, 1 mM EDTA, 1% NP-40, 10% glycerol); anti-WWP2 or anti-DDX3X antibody 3 h, then protein A/G agarose 12 h at 4 °C; western blot; cells with or without HG/PA for 48 h

binding: binds
Substance: DEAD-box helicase 3 X-linked (DDX3X), endogenous (from UniProt O00571 1-662)
